Results: PubChem BioAssay AID488835 (Broad Institute, 2010)
Among all 1,400 compounds or so, about 140 (10%) were called active.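 Rule for the calls: active = Half-maximal inhibitory dose from the fit at or below ten times the top valid tested dose; inconclusive = Invalid fit, or flat curve showing 30 to 70% inhibition; inactive = the rest.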 The list shows a part of the results, in another mix than the full data. Potency and affinity values are given separately. Where a SMILES comes first, the peptide text is derived from it. The star is where a group is joined. Boc = CC(C)(C)OC(=O)*

Protein sequences, listed by entry. Tags and fused reporters are not part of them. Residues count along the entry.
UniProt Q9H3R0, 1-420 limits assumed: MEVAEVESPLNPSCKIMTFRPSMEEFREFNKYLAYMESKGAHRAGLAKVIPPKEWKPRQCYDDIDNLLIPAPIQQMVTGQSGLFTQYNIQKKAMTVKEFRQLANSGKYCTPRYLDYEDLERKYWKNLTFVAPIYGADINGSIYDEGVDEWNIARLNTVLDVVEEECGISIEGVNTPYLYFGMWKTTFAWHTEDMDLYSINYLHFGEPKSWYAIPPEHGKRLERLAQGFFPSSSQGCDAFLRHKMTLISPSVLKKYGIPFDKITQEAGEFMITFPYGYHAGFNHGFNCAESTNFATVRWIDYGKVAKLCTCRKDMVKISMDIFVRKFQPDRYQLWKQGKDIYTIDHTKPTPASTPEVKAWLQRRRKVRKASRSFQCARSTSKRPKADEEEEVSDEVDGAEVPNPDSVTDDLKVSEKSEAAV

These molecules were tested against Lysine-specific demethylase 4C (Homo sapiens) (UniProt Q9H3R0) (assay: inhibition of JMJD2C H3K9me3 demethylation – biochemical, DELFIA europium, cherry-picked samples, dose response (AID 488835;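 note: signal is the H3K9me2 demethylation product detected by a dimethyl-specific antibody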)). Settings: GST-JMJD2C(1-420); at 6 µM (top of the series) unless noted.

Activity change, negative = inhibition, inactive:
C[C@H](CO)N1C[C@H](C)[C@@H](CN(C)S(=O)(=O)c2cccs2)Oc2c(NC(=O)CCC(F)(F)F)cccc2C1=O 1.77%
Cn1nnnc1SCC(=O)NCC(=O)c1ccccc1 6.65%
CC(C)NC(=O)N(C)C[C@H]1Oc2ccc(NS(=O)(=O)c3ccccc3)cc2C(=O)N([C@H](C)CO)C[C@H]1C 6.68%
Cc1ccc(CONC(=O)c2cccc([N+](=O)[O-])c2)cc1 6.3%
CC(=O)Nc1ccc(NC(=O)Cn2cnc3c(cnn3C(C)(C)C)c2=O)cc1 0.153%
Cc1ccc(C(=O)CN2C(=O)C(=O)N(Cc3ccccc3)C2=O)cc1 1.89%
CC/C(=C/c1sc2ccc(C)cc2[n+]1CCCS(=O)(=O)[O-])SC -0.783%
N#Cc1nc(COc2ccccc2F)oc1NCCCn1ccnc1 1.41%
O=C(/C=C/c1ccc2c(c1)OCO2)NCCS(=O)(=O)N1CCN(c2ccc(F)cc2)CC1 -1.44%
O=C1c2ccc([N+](=O)[O-])cc2C(=O)N1Cc1cccnc1 7.52%
CSC1=N/C(=C\C=C\c2cccs2)C(=O)S1 -5.46%
C[C@@H]1CN([C@@H](C)CO)C(=O)c2cc(NC(=O)CCN3CCOCC3)ccc2O[C@@H]1CN(C)C(=O)Nc1ccccc1 -6.36%
COc1cccc(OC)c1C(=O)NC(=S)N1CCOCC1 6.62%
O=C(NCc1cccc(Cl)c1)c1cnn2c1NC(c1ccco1)CC2C(F)(F)F (stereo not drawn) 2.78%
COc1ccccc1-c1nc(C#N)c(NCc2ccc(F)cc2)o1 -3.18%
O=C(Cc1cccc2ccccc12)N1CCCc2ccccc21 0.877%
COc1ccc(S(=O)(=O)NCCCCC(=O)O)cc1C(=O)O 7.07%
COc1cc(C)c(/C=C(\C#N)C(=O)Nc2ccc(C)cc2)cc1C(C)C 4.53%
CCOCCc1nnc(NC(=O)c2ccc(OC)c(OC)c2)s1 5.7%
COC(=O)c1cc(S(=O)(=O)NCCCN2CCCC2=O)cn1C 2.12%
Cc1cc(-n2c(SCC(=O)NCc3cccs3)nc3n[nH]c(C)c3c2=N)ccc1Cl 4.17%
COc1ccc(CCNC(=O)c2ccc(N3CCCCS3(=O)=O)cc2)cc1OC 4.22%
C[C@H](CO)N1C[C@H](C)[C@@H](CN(C)Cc2ccc(Cl)c(Cl)c2)Oc2c(NS(=O)(=O)c3cccs3)cccc2C1=O -1.37%
CCCNC(=S)Nc1ccc(Nc2ccccc2)cc1 1.91%
CC(NC(=O)NNC(N)=S)(C(F)(F)F)C(F)(F)F 1.79%
Cc1ccc(S(=O)(=O)NCCC(=O)OCC(=O)Nc2ccccc2Cl)cc1 3.94%
Cc1nc2cc(CO)ccc2n1C 0.194%
O=C1CCN(Cc2ccc(O)cc2)CCN1[C@H](CO)Cc1ccccc1 0.619%
COC(=O)c1cc(NC(=O)CSc2nncn2C)cc(C(=O)OC)c1 1.74%
CN(C)S(=O)(=O)c1cccc(NC(=S)NCc2ccc3c(c2)OCO3)c1 1.74%
C[C@@H]1CN([C@H](C)CO)C(=O)c2cccc(NS(=O)(=O)c3ccccc3)c2O[C@H]1CN(C)C -2.01%
O=C(Cn1cncn1)NCc1cc(F)ccc1F 2.09%
O=C(NCC1CCCO1)c1ccc2c(=O)n(Cc3cccc(Br)c3)c(=S)[nH]c2c1 (stereo not drawn) 10.2%
O=C(NCCCN1CCOCC1)c1cccc(S(=O)(=O)N2CCc3ccccc3C2)c1 7.38%
COc1ccccc1-n1cnnc1SCC(=O)Nc1ncc(Cl)cc1Cl -7.89% [at 1.6 µM]
CCCC(=O)Nc1nn(C)c2nc3c(C)cccc3cc12 -4.26%
C[C@@H]1CN([C@H](C)CO)C(=O)c2cc(NC(=O)Nc3ccc(C(F)(F)F)cc3)ccc2O[C@H]1CN(C)S(=O)(=O)c1ccccc1 2.71%
CC(C)(C)OC(=O)N[C@@H](Cc1ccccc1)C(=O)N[C@@H](CO)[C@H](O)[C@@H]1C[C@@H]1C(=O)NC1CCCCC1 -6.41%
Cc1cc(C)c(NC(=O)CS(=O)CC(=O)Nc2ccc(F)cc2F)c(C)c1 (stereo not drawn) 0.49% [at 1.6 µM]
CC(C)N(C(=O)[C@H]1CC(CC(=O)NCc2cccc(C(F)(F)F)c2)C(=O)N2CCc3c([nH]c4ccccc34)[C@]12C)C(C)C (stereo partly drawn) 3.1%
CC(O)CNc1nc2ccccc2n1CC(=O)NC12CC3CC(CC(C3)C1)C2 (stereo not drawn) 2.35%
O=C(NCc1ccccn1)c1ccc(OC2CCN(Cc3cccs3)CC2)cc1 0.274%
CC(=O)c1sc(NC(=O)c2ccc(C)cc2)nc1C 1.55%
CCN(CC)C(CNS(=O)(=O)c1ccc(Cl)cc1)c1ccccc1 (stereo not drawn) -2.47%
O=C(N/N=C/c1nn(-c2ccccc2)cc1-c1ccccc1)c1ccncc1 0.372%
CCn1c(SCC(=O)N2CCc3ccccc32)nnc1-c1ccco1 9.2%
COc1ccc(NC(=O)Nc2cccc3c2O[C@H](CN(C)C(=O)NC(C)C)[C@@H](C)CN([C@H](C)CO)C3=O)cc1 4.2%
CCOC(=O)CSc1nc2sc(C)c(C)c2c(=O)[nH]1 -3.88%
CSC1=NCCN1C(=O)c1cccc(C(F)(F)F)c1 -2.7%
Cc1cccc(N2CC(C(=O)Nc3nnc(SCC(=O)Nc4nccs4)s3)CC2=O)c1 (stereo not drawn) -2.27%
CC1=NN(c2nc(-c3ccc(C#N)cc3)cs2)C(=O)C1 -1.21%
CC(C)(C)NC(=O)CSc1nc2cccnc2n1C1CCCCC1 -2.77% [at 1.6 µM]
Cc1sc2ncnc(NCCCO)c2c1C 5.97%
Cc1cccc(C)c1NS(=O)(=O)c1cc2c3c(c1)CC(=O)N3CCC2 3.44%
CCn1cnc2sc(C(=O)Nc3ccc4c(c3)OCO4)c(C)c2c1=O -3.87%
O=C(Nc1cccnc1)c1ccccc1Oc1ccccc1 6.39%
COc1cc2[nH]c(=O)n(CCCCCC(=O)NCCCN3CCCC3=O)c(=O)c2cc1OC 1.31%
Cc1sc2nc(CN3CCOCC3)nc(NS(=O)(=O)c3cc(Cl)ccc3Cl)c2c1C 2.96%
O=C(CSc1nc(-c2ccco2)cc(C(F)(F)F)n1)Nc1ccc(C(=O)N2CCCCC2)cc1 -0.0352%
Cc1ccc(S(=O)(=O)Nc2ccc3c(c2)C(=O)N([C@H](C)CO)C[C@H](C)[C@@H](CN(C)Cc2ccc(-c4ccccc4)cc2)O3)cc1 7.33%
CC(=O)c1c(Nc2ccccc2)sc(C(=O)c2ccccc2)c1C -1.31%
COc1ccc(-c2cc3c(=O)n(CC(=O)NCc4cccnc4)nc(C)n3n2)cc1 0.732% [at 1.6 µM]
COc1ccc(C(=O)N2CCC(C(=O)NCc3ccccn3)CC2)cc1 3.25%
COc1cc(-c2nnco2)cc(OC)c1OC 5.49%
COc1ccccc1OCCOCCn1cnc2ccccc2c1=O -6.98%
C[C@H](CO)N1C[C@H](C)[C@@H](CN(C)Cc2ccc(Cl)c(Cl)c2)Oc2c(NS(=O)(=O)c3cn(C)cn3)cccc2C1=O 4.5%
COc1cccc(C(c2c(C)[nH]n(-c3ccccc3)c2=O)c2c(C)[nH]n(-c3ccccc3)c2=O)c1O -11.1%
O=C(COC(=O)c1cccc(S(=O)(=O)NCc2ccccc2)c1)Nc1ccccc1OC(F)F -0.0575%
CCC(C)C(NC(=O)OC(C)(C)C)C(=O)NC(C(=O)N1CCCC1C(N)=O)C(C)CC (stereo not drawn) (Boc-Ile-Ile-Pro-NH2; configuration not given here) 8.44%
CCOc1cc(NC(=O)c2ccco2)c(OCC)cc1NC(=O)c1ccco1 -6.78%
Cc1ccccc1C(=O)OCCCN=C1NS(=O)(=O)c2ccccc21 8.73%
COC(=O)[C@]1(Cc2ccccc2)N[C@H](CN(C)C(=O)Nc2ccccc2)[C@@H]2C(=O)N(C)C(=O)[C@@H]21 -3.93%
CCNC(=O)C/C(C)=N/NC(=O)C12CC3CC(CC(C3)C1)C2 -5.28%
CCN(CC)S(=O)(=O)c1ccc(N2CCOCC2)c(NC(=O)c2ccc3c(c2)OCCO3)c1 4.55%
Cc1c(C(=O)Nc2ccc3c(c2)OCO3)sc2ncn(CC(=O)N3CC(C)CC(C)C3)c(=O)c12 (stereo not drawn) 12.4%
CN1C(=O)Cc2cc(S(=O)(=O)NCCc3ccc(Cl)cc3)ccc21 -0.124%
COc1cc(NS(=O)(=O)c2ccc(NC(=O)c3ccc(C)o3)cc2)nc(OC)n1 7.65%
Cc1ccc(CNC(=O)CCC2CCCN(Cc3ccc4cccc(F)c4n3)C2)o1 (stereo not drawn) 6.45%
COc1ccc(OC)c(Nc2nc(-c3cccs3)cs2)c1 -4.95%
C#CCOCCOCCOCCNc1nc(N2CCN(C(=O)[C@H](CCCCN)n3cc(CN)nn3)CC2)nc(N2CCN(C(=O)[C@H](CCC(=O)O)n3cc([C@@H](N)CCSC)nn3)CC2)n1 -9.04%
COCCNC(=S)N1CCN(C)CC1 -0.745%
COc1ccc(C(=O)NCc2nnc(SCC(=O)N3CCc4ccccc43)o2)cc1OC 2.47%
c1cc2c(cc1C1CCCCC1)c1c3n2CCCNC3CCC1 (stereo not drawn) -0.182%

Quoted from above, 17 compounds:
Activity change, negative = inhibition, inactive:
CC1=NN(c2nc(-c3ccc(C#N)cc3)cs2)C(=O)C1 -1.21%
CC(C)(C)NC(=O)CSc1nc2cccnc2n1C1CCCCC1 -2.77% [at 1.6 µM]
Cc1sc2ncnc(NCCCO)c2c1C 5.97%
Cc1cccc(C)c1NS(=O)(=O)c1cc2c3c(c1)CC(=O)N3CCC2 3.44%
CCn1cnc2sc(C(=O)Nc3ccc4c(c3)OCO4)c(C)c2c1=O -3.87%
O=C(Nc1cccnc1)c1ccccc1Oc1ccccc1 6.39%
COc1cc2[nH]c(=O)n(CCCCCC(=O)NCCCN3CCCC3=O)c(=O)c2cc1OC 1.31%
Cc1sc2nc(CN3CCOCC3)nc(NS(=O)(=O)c3cc(Cl)ccc3Cl)c2c1C 2.96%
O=C(CSc1nc(-c2ccco2)cc(C(F)(F)F)n1)Nc1ccc(C(=O)N2CCCCC2)cc1 -0.0352%
Cc1ccc(S(=O)(=O)Nc2ccc3c(c2)C(=O)N([C@H](C)CO)C[C@H](C)[C@@H](CN(C)Cc2ccc(-c4ccccc4)cc2)O3)cc1 7.33%
CC(=O)c1c(Nc2ccccc2)sc(C(=O)c2ccccc2)c1C -1.31%
COc1ccc(-c2cc3c(=O)n(CC(=O)NCc4cccnc4)nc(C)n3n2)cc1 0.732% [at 1.6 µM]
COc1ccc(C(=O)N2CCC(C(=O)NCc3ccccn3)CC2)cc1 3.25%
COc1cc(-c2nnco2)cc(OC)c1OC 5.49%
COc1ccccc1OCCOCCn1cnc2ccccc2c1=O -6.98%
C[C@H](CO)N1C[C@H](C)[C@@H](CN(C)Cc2ccc(Cl)c(Cl)c2)Oc2c(NS(=O)(=O)c3cn(C)cn3)cccc2C1=O 4.5%
COc1cccc(C(c2c(C)[nH]n(-c3ccccc3)c2=O)c2c(C)[nH]n(-c3ccccc3)c2=O)c1O -11.1%
